No constants are given. Whether binding was seen depends on the method and setting. Some entries that bind do so weakly or less than the wild type.
B1: EC-1 phage clone (ErbB2-binding peptide 1 displayed on phage) (peptide)
peptide: WTGWCLNPEESTWGFCTGSF
B2: ErbB2-binding peptide 10 (peptide)
peptide: LNWECWYDYRLEAWDCRGDI
B3: ErbB2-binding peptide 11 (peptide)
peptide: CEVWGEVPWTC
B4: ErbB2-binding peptide 12 (peptide)
peptide: CEVWGFVPWAC
B5: ErbB2-binding peptide 13 (peptide)
peptide: SNESCGSPINPWGEMCLLML
B6: 02-124 peptide phage clone (ErbB2-binding peptide 14) (peptide)
peptide: WTGWCLNPEESTWGFCRSAG
notes: From an EC-1 biased peptide phage library; also called EBP-14
B7: 02-137 peptide phage clone (ErbB2-binding peptide 15) (peptide)
peptide: WTGWCLSPEESTWGFCRSAG
notes: From an EC-1 biased peptide phage library; also called EBP-15
B8: 02-140 peptide phage clone (ErbB2-binding peptide 16) (peptide)
peptide: WTGWCLNPEESTWGFCSGYI
notes: From an EC-1 biased peptide phage library; also called EBP-16
B9: 02-135 peptide phage clone (ErbB2-binding peptide 17) (peptide)
peptide: WTGWCFDDNHSTWGFCTGSF
notes: From an EC-1 biased peptide phage library; also called EBP-17
B10: CB022701-20 (E-20) (ErbB2-binding peptide 18) (peptide)
peptide: DTDMCWWWSREFGWECAGAG
B11: CB051701-19 (C-19) (ErbB2-binding peptide 19) (peptide)
peptide: SLALCLSEGVLLGADCRVLF
B12: ErbB2-binding peptide 2 (peptide)
peptide: VVACSWDWTMGAVVCYERI
B13: CB051701-25 (C-25) (ErbB2-binding peptide 20) (peptide)
peptide: WSSMCGDPTIADWLWCFSDA
B14: ErbB2-binding peptide 3 (peptide)
peptide: GFWTCEYDWWSDATVCMHTL
B15: ErbB2-binding peptide 4 (peptide)
peptide: GRGWCWSEWQNDWFWCWDVW
B16: ErbB2-binding peptide 5 (peptide)
peptide: WTGWCLNPEESTWGFCTGSF
B17: ErbB2-binding peptide 6 (peptide)
peptide: ARLQCWSLGWGGPVYCGFGQ
B18: ErbB2-binding peptide 7 (peptide)
peptide: IQEVCWFDYNLSQWHCMTVI
B19: ErbB2-binding peptide 8 (peptide)
peptide: PDIYCLSVTAPGFLICYERY
B20: ErbB2-binding peptide 9 (peptide)
peptide: HDELCVFSFDFNALLCWPAE

target: ErbB2 (human) (UniProt P04626); experiment: peptide phage ELISA and immunofluorescence

Binder	binding
B1	binds
B2	binds
B3	binds
B4	binds
B5	binds
B6	binds
B7	binds
B8	binds
B9	binds
B10	binds
B11	binds
B12	binds
B13	binds
B14	binds
B15	binds
B16	binds
B17	binds
B18	binds
B19	binds
B20	binds
